Data from PMC8143797.

By UniProt entry, the sequences of proteins in these tests, tags left out.
UniProt Q9GZV5: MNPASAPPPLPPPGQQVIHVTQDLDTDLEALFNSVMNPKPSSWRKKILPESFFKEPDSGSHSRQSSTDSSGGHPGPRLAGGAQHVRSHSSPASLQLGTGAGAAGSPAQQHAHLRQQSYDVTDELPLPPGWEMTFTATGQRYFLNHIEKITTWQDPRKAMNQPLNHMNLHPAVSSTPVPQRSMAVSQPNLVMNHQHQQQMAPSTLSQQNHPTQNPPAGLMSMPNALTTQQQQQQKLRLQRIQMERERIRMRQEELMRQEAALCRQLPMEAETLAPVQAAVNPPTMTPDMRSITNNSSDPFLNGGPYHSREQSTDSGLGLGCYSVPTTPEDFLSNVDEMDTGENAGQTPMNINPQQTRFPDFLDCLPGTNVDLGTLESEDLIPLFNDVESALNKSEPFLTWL
UniProt Q8NI35: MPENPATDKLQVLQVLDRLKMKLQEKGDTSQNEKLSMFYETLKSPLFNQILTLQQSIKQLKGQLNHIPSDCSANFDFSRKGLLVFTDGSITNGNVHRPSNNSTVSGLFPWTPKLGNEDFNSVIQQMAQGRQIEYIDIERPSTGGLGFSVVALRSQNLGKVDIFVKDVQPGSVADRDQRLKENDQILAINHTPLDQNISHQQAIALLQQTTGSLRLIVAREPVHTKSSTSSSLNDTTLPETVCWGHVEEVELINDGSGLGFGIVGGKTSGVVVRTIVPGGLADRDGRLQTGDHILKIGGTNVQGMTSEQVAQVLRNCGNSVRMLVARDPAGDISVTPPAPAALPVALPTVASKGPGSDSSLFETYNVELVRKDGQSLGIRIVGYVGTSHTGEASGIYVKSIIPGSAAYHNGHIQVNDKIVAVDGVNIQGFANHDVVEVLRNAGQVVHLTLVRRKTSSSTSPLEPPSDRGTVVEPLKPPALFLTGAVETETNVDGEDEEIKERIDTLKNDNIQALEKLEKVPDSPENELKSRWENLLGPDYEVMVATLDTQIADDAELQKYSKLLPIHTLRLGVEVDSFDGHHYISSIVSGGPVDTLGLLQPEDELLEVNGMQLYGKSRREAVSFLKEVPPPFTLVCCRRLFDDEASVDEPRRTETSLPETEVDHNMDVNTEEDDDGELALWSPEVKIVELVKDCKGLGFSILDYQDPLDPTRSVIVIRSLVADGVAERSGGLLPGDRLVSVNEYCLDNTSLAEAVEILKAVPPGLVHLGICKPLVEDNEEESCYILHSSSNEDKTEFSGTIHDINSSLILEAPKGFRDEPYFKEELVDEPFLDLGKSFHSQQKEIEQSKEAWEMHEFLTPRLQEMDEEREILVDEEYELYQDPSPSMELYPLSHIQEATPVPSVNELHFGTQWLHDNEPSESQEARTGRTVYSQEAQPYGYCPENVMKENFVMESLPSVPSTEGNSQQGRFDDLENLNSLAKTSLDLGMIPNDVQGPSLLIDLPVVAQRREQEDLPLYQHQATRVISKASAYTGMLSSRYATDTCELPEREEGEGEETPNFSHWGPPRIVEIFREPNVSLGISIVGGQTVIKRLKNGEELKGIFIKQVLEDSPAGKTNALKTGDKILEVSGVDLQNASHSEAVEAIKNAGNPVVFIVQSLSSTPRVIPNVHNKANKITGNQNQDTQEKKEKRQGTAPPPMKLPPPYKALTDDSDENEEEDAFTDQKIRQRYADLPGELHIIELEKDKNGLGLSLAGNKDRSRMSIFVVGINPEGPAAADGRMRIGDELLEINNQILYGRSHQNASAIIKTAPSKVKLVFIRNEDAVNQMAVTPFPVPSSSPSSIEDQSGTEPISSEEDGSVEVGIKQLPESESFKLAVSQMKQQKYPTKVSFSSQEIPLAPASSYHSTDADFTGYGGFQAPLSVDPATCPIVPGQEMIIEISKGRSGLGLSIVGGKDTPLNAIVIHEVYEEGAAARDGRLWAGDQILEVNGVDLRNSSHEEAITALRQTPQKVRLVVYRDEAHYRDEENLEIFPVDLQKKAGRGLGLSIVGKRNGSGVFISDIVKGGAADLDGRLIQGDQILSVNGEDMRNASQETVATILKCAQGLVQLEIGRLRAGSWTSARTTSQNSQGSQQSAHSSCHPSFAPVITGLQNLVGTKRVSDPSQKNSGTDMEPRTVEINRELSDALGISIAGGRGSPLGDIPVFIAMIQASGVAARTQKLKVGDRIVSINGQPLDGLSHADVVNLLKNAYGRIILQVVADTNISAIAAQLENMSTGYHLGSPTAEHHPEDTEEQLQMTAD

Target: BirA*-TAZ (human) (UniProt Q9GZV5)
Assay: proximity labelling; BioID: baits fused at the N terminus to BirA* (R118G), stably expressed in Flp-In T-REx HEK293 cells, 1 µg/mL tetracycline and 50 µM biotin for 24 hr; biotinylated proteins purified, tandem mass spectrometry, SAINT analysis

binding: binds
Substance: PATJ (from UniProt Q8NI35 1-1801)

These are yes or no findings as the source states them, for the method shown. Binding seen in cells or lysates may run through a third protein. Here binding means that the protein was enriched with, or labelled near, the bait; the list need not be complete.
